No constants are given. Whether binding was seen depends on the method and setting.
Assays:
[1] = biological target: T1, ETV6(203-222) wild-type peptide (human); test: fluorescence polarisation
T1 sequence (peptide, 5(6)-carboxyfluorescein on the N-terminus; C-terminal amide): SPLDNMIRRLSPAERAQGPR

Sequences of proteins named here, by UniProt entry; tags and fusion partners are left off. A change or cut given only in a name is not applied to a line headed by its entry.
UniProt O14980: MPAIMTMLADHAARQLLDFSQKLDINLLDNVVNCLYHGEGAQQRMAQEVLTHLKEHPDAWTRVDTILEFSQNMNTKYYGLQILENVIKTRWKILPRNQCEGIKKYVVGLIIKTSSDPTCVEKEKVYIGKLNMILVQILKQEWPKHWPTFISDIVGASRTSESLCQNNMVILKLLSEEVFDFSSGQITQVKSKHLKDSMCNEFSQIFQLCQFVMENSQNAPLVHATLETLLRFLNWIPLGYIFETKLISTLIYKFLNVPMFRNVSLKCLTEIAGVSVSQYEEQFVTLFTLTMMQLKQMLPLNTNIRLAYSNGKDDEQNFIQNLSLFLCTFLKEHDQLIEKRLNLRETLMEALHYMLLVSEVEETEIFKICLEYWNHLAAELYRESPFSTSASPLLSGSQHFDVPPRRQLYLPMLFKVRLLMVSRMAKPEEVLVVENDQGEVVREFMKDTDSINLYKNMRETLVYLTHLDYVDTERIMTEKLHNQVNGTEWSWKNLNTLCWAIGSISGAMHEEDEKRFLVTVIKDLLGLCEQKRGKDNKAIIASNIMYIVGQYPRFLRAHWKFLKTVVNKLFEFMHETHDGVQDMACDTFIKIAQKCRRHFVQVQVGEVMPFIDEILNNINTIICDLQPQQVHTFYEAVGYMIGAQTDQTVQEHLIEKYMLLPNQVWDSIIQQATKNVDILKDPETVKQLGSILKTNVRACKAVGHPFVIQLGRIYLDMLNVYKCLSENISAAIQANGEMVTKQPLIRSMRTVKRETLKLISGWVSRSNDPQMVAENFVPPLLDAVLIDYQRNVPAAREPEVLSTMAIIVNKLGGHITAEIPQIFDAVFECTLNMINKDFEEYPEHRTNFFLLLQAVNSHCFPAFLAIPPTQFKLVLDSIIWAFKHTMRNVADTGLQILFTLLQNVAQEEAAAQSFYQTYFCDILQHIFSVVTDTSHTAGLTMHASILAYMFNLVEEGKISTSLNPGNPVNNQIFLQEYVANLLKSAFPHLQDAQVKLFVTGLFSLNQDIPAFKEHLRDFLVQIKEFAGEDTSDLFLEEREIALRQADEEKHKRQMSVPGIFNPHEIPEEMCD

[2] = biological target: T2, BCOR P85L(69-88) peptide (human); test: fluorescence polarisation
T2 sequence (peptide, 5(6)-carboxyfluorescein on the N-terminus; C-terminal amide): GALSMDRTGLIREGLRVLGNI

- binding [1]: no binding
- binding [2]: no binding
Substance: reconstituted XPO1:RanGTP nuclear export receptor complex (from UniProt O14980 1-1071; P32835 1-179)

Source: doi:10.1101/2024.04.24.590854
